Measured data: PubChem BioAssay AID504808 (Drosophila RNAi Screening Center, 2011)
The deposit covers about 21,000 reagents; below is an unselected part of those with a known target gene and a result. In the full data, 18 (0.084%) got an active call. 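Raw counts without plate normalisation, one of two replicates; the ratio scores behind the calls were not deposited.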 The numbers tell different reagents against one gene apart. The record does not give: the amount of reagent, the time to read-out.

Aim: 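Genes whose loss lifts activity of an E2F-responsive reporter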 (primary screen)
Cells: Drosophila S2 cells
Reagent: long dsRNA against Drosophila genes
Read-out: 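Dual luciferase plate measurements; E2F-specific signal taken as firefly over Renilla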
Scale: E2F firefly: higher = more E2F reporter activity; Renilla normaliser: higher = more normaliser reporter signal
Rule for the call: 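a knock-down counted as active when the firefly/Renilla E2F signal rose above 50%, a threshold chosen arbitrarily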

CG5039 scored E2F firefly, rep 1 = 1.14e5; Renilla normaliser, rep 1 = 5583; inactive.
Antp gave E2F firefly, rep 1 = 61368; Renilla normaliser, rep 1 = 3443; inactive.
For CG11977 the deposit lists E2F firefly, rep 1 = 1.07e5; Renilla normaliser, rep 1 = 6040; inactive.
For Cdc42 the deposit lists E2F firefly, rep 1 = 1.33e5; Renilla normaliser, rep 1 = 6652; inactive.
Against CG1582 the deposit lists E2F firefly, rep 1 = 7895; Renilla normaliser, rep 1 = 720; inactive.
dpr11 #1 scored E2F firefly, rep 1 = 1.47e5; Renilla normaliser, rep 1 = 6994; inactive.
dpr11 #2 gave E2F firefly, rep 1 = 1.45e5; Renilla normaliser, rep 1 = 6434; inactive.
Against dpr11 #3, the entry reads E2F firefly, rep 1 = 1.51e5; Renilla normaliser, rep 1 = 6972; inactive.
Knock-down of sll came out at: E2F firefly, rep 1 = 64193; Renilla normaliser, rep 1 = 3660; inactive.
Depletion of CG17233 gave: E2F firefly, rep 1 = 70016; Renilla normaliser, rep 1 = 3308; inactive.
After knock-down of CG9254 the results were E2F firefly, rep 1 = 1.19e5; Renilla normaliser, rep 1 = 4930; inactive.
For lin-52, the values are E2F firefly, rep 1 = 44131; Renilla normaliser, rep 1 = 3883; inactive.
Against CG14420, the values are E2F firefly, rep 1 = 1.30e5; Renilla normaliser, rep 1 = 6882; inactive.
For BobA, the entry reads E2F firefly, rep 1 = 1.48e5; Renilla normaliser, rep 1 = 6699; inactive.
CR41501 gave E2F firefly, rep 1 = 1.87e5; Renilla normaliser, rep 1 = 7579; inactive.

Not a retest: an excerpt of the list.
dpr11 #1 — E2F firefly, rep 1: 1.47e5; Renilla normaliser, rep 1: 6994; Outcome: inactive
dpr11 #2 — E2F firefly, rep 1: 1.45e5; Renilla normaliser, rep 1: 6434; Outcome: inactive
dpr11 #3 — E2F firefly, rep 1: 1.51e5; Renilla normaliser, rep 1: 6972; Outcome: inactive

Further entries:
Silencing of CG31606 came out at: E2F firefly, rep 1 = 1.25e5; Renilla normaliser, rep 1 = 6248; inactive.
After knock-down of CG33181, the screen gave E2F firefly, rep 1 = 1.26e5; Renilla normaliser, rep 1 = 6799; inactive.
With knock-down of Edem1, the screen gave E2F firefly, rep 1 = 1937; Renilla normaliser, rep 1 = 1016; inactive.
Against CG14187, the values are E2F firefly, rep 1 = 1.27e5; Renilla normaliser, rep 1 = 7309; inactive.
With knock-down of RpS11, the screen gave E2F firefly, rep 1 = 68737; Renilla normaliser, rep 1 = 4651; inactive.
CG17652 showed E2F firefly, rep 1 = 1.74e5; Renilla normaliser, rep 1 = 5919; inactive.
Depletion of Pus7 gave: E2F firefly, rep 1 = 86962; Renilla normaliser, rep 1 = 3682; inactive.
Against CG13239 the deposit lists E2F firefly, rep 1 = 1.43e5; Renilla normaliser, rep 1 = 7603; inactive.
Silencing of CG44153 #1 came out at: E2F firefly, rep 1 = 77563; Renilla normaliser, rep 1 = 3355; inactive.
Against CG44153 #2 the deposit lists E2F firefly, rep 1 = 1.40e5; Renilla normaliser, rep 1 = 5355; inactive.
Knock-down of CG44153 #3 came out at: E2F firefly, rep 1 = 1.58e5; Renilla normaliser, rep 1 = 4782; inactive.
CG44153 #4 gave E2F firefly, rep 1 = 1.57e5; Renilla normaliser, rep 1 = 5304; inactive.
After knock-down of eIF4B, the record shows E2F firefly, rep 1 = 1.43e5; Renilla normaliser, rep 1 = 6752; inactive.
